## Primary screen of a compound library

Source: ChEMBL document CHEMBL3988442, “University of Dundee, Small-Polar-MMV Screening Library” (2021).

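Whole-cell growth test on Mycobacterium tuberculosis, read after 3 days in glucose-containing 7H9 medium; the read-out is not stated. Tested at 50 µM. The record gives no direction; compounds that gave an IC50 in retests scored well above the rest, so higher reads as more growth inhibition. About 69,000 compounds were tested under these conditions; 1.1% (about 760) showed 50% or more at least once.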

Values are the deposited “Percent Effect”, in %. How 0% and 100% were set is not recorded. Most values in the screen are low, and negative values occur. The compounds are a random part of those screened. Two or more numbers in one place are separate tests of the same structure; such repeats can differ widely.

structure | percent effect
Br.Cc1ccc(OCCSC2=NCCN2)cc1 | 54.19
COc1c(C)cc(CNCc2ccnc(N3CCOCC3)c2)cc1C.Cl | 19.93 & 1.567
c1ccc(CN2CCCC(Cn3cncn3)C2)nc1 (configuration not stated) | -52.17
COc1ncc(-c2nccn2-c2ccccc2CN2CCOCC2)cn1 | -35.11
CC1CCN(c2ccc(CNC(=O)NCCn3ccnc3)cn2)CC1 | -7.316 & -13.13
O=C(CCn1cccc1)N1CCc2[nH]nc(COc3ccccc3)c2C1 | 3.553
CCN1C(=O)C(c2ccccc2)CC12CCN(c1ncccn1)CC2 (configuration not stated) | -15.58
Cc1cccc(N2CCN(C(=O)CC3(O)CCCC3)C(C)C2)n1 (configuration not stated) | 34.88
COC1COC2(CCN(C(=O)c3cnc(C)cn3)CC2)C1 (configuration not stated) | -34.24 & 2.202
Cc1cc(N(Cc2cccnc2)C2CC2)n2nc(C(F)(F)F)nc2n1 | -24.5
COc1cc(Cl)cc(CN2CCCC(N3CCCC3)C2)c1OC (configuration not stated) | 70.79
Cc1csc(CCNC(=O)N2CCC(n3cccc3)CC2)n1 | -1.301
O=C(c1cc[nH]n1)N(Cc1cccc(O)c1)CC1CC1 | 9.799
c1cnc(NCC2Cn3nnc(-c4ccsc4)c3CO2)nc1 (configuration not stated) | -15.18
Cc1cccc2nc(CNC(=O)N3CCC(OCC4CC4)CC3)cn12 | -9.775
COC(=O)C1CN(Cc2ccn(-c3ccc(F)cc3)n2)C[C@@H](C)O1 (some centres not stated) | 2.907 & -24.68
Cn1cc(CN2CCCC3(CCN3S(C)(=O)=O)C2)cn1 (configuration not stated) | -22.53
CN(C)c1ncc(-c2ccc(C(N)=O)cc2)c(C2CCNC2)n1.Cl (configuration not stated) | -5.565
O=C(O)C(F)(F)F.[H][C@@]12CN(Cc3nccs3)C[C@]1([H])CN(C(N)=O)C2 | -19.45
CCNC(=O)CN1CCN(c2ccnc3c(F)ccc(F)c23)CC1 | -0.9667 & 25.19
Fc1cccc(C(NCc2ncc[nH]2)c2ccccn2)c1 (configuration not stated) | 15.93 & 4.359
CCN(CC)c1ccc(CNS(=O)(=O)C2CCOCC2)cc1F | -3.027
CN(CCn1ccc2ccccc21)C(=O)Cc1n[nH]c(=O)[nH]1 | 0.692
CCCNC(=O)CCNC(=O)N1CCc2c(F)ccc(F)c2C1 | -13.37
O=C(C1CCSCC1)N1CCC2(CC1)COC(COCC1CC1)C2 (configuration not stated) | -15.8 & -9.296
O=C(Nc1ccccc1)c1ccc(NCc2nccs2)nn1 | -2.723
CCc1noc(CN(C)C(=O)C2COc3ccccc3C2)n1 (configuration not stated) | 12.51
CCc1cc(NCCN2CCNC2=O)n2nc(C)c(C)c2n1 | -20.2
CC(C)c1nc(C2CCCN2CCS(C)(=O)=O)no1 (configuration not stated) | -23.09
O=C(O)C(F)(F)F.[H][C@]12CCN(CCOC)[C@@]1([H])CC[C@H](COCC(=O)N1CCCC1)O2 | 20.35
O=C([C@@H]1CCCO1)N1CCOCC2(CCN(Cc3cccnc3)C2)C1 (some centres not stated) | 11.75
[H][C@@]12CNC(=O)N1CCN(Cc1cccc(OC)n1)C2 | 14.53 & -5.694
COCC1CN(Cc2cc(C)on2)Cc2cn(CC3CC3)nc21 (configuration not stated) | -4.906 & 4.734
[H][C@]12CCN(C(=O)c3ccno3)[C@@]1([H])CC(=O)N2CC1CC1 | -2.678
CN(Cc1ccccc1)S(=O)(=O)N1C[C@@H](C(=O)O)[C@H](C2CC2)C1 | -24.48
OCCN1CCOC2(CCCN(c3ncccn3)C2)C1 (configuration not stated) | -25.2 & 0.5153
[H][C@@]12CCCO[C@]1([H])[C@H](N(C)Cc1ccco1)CN(Cc1ccoc1)C2 | -11.84
Cc1ccc(CN(CCN(C)C)C(=O)Nc2cnn(C)c2)s1 | -16.3
Cc1noc(C)c1CN1CCCC1c1c(C)nn(C)c1Cl (configuration not stated) | 3.104
CN(CCN1CCOC1=O)CC(=O)Nc1cc(F)cc(F)c1 | 10.71
O=c1c(NCc2ccccn2)c(NCC(O)CN2CCOCC2)c1=O (configuration not stated) | -2.45
CN(C)[C@@H]1CN(Cc2ccccn2)C[C@H]1c1cn(C)c2ccccc12.Cl | -10.08
Cc1nccn1-c1ccc(C(C)NCCc2ccccn2)cc1 (configuration not stated) | 2.59 & -12.98
CN(C)CC(=O)N1Cc2nc(C(=O)NCc3ccccc3)oc2C1 | -21.53
CN(C)c1nc(N)nc(CN2CCCC2c2cccs2)n1 (configuration not stated) | 0.4608
CN(Cc1cc(-c2ccncc2)no1)Cc1nccn1C | -4.997 & -29.87
CCc1noc(CN2CCCC(Cn3nc(C)nc3C)C2)n1 (configuration not stated) | -6.691
Cc1nc(C)c(CN2CCOC(CNc3cccnn3)C2)s1 (configuration not stated) | -4.136
O=C([C@H]1CCCO1)N1CCC2(CC1)C(=O)N(CC1CC1)c1ccccc12 | -5.184
CN(Cc1nnc2n1CCC2)C(=O)c1ccc(=O)n(C)n1 | 26.47
COc1ccc(OCCNc2cccc(C(=O)N3CCOCC3)c2)cc1 | 5.714
Cc1noc(C)c1CN1CCC2(CC1)C(c1ccccc1)CC(=O)N2C.O=C(O)C(F)(F)F (configuration not stated) | 9.634
CC(=O)NCCNC(=O)Nc1ccc(C)cc1OCc1ccccc1 | -1.885 & 13.26
Cc1cc(C2CN(CC(=O)NCc3ccco3)CCO2)ccc1F (configuration not stated) | 30.19
Cn1ncc2c(=O)[nH]c(CN(Cc3cccc(F)c3)C3CC3)nc21 | 8.492
[H][C@@]12CN(C(=O)[C@H]3CCCO3)C[C@]1([H])C(=O)N(Cc1ccc(OC)cc1)C2 | 2.992
CCCN1CCCN(C(=O)c2oc(C)nc2C)CC1 | -56.83
Cn1cnnc1-c1cncc(NCc2cccc3c2OC(C)(C)C3)c1 | 6.416 & -30.98
Cc1nc(C(=O)N2CCCC(c3cc(C(F)(F)F)[nH]n3)C2)c[nH]1 (configuration not stated) | -5.431 & 9.159
Cn1cc(S(=O)(=O)N(Cc2ccc(F)cc2F)C2CC2)cc1C(N)=O | -5.36
Cc1cc(C(F)(F)F)nc(N(C)Cc2c(C)noc2C)n1 | 4.393 & -14.82
Cc1ccc2nc(CN3CCC(O)(CN4CCCC4)CC3)cc(O)c2c1 | -2.346
CCS(=O)(=O)N(C)CCCNCc1c(C)nn(C)c1N(C)C | -28.93
COCCN1C(=O)CC[C@]12CC[C@@H](NC(=O)c1cnccn1)CC2 | 8.156
[H][C@]12CC[C@]([H])(CN(Cc3ccccc3)C1)N(C(=O)CCCN(C)C)C2 | -35.51
Cc1cnc(C(NC(=O)NCC2(CO)CC2)C2CC2)s1 (configuration not stated) | 3.283
[H][C@@]12CCCO[C@]1([H])[C@H](NC(=O)CC1CC1)CN(Cc1nccs1)C2 | -0.5556 & 7.498
[H][C@]12CC[C@]([H])(CN(c3ncccn3)C1)N(C(=O)c1cc(C(C)C)oc1C)C2 | 9.008 & -0.01219
CCc1ccsc1C(=O)NCCn1nc2ccccn2c1=O | -8.528

Repeated from the top, 5 entries:

* Br.Cc1ccc(OCCSC2=NCCN2)cc1 | 54.19%
* COc1c(C)cc(CNCc2ccnc(N3CCOCC3)c2)cc1C.Cl | 19.93% & 1.567%
* c1ccc(CN2CCCC(Cn3cncn3)C2)nc1 (configuration not stated) | -52.17%
* COc1ncc(-c2nccn2-c2ccccc2CN2CCOCC2)cn1 | -35.11%
* CC1CCN(c2ccc(CNC(=O)NCCn3ccnc3)cn2)CC1 | -7.316% & -13.13%